{
  "source": "paper PMC8202924",
  "about": "“Emodepside targets SLO-1 channels of Onchocerca ochengi and induces broad anthelmintic effects in a bovine model of onchocerciasis” (PLoS Pathogens, 2021)",
  "key": {"[1]": {"tested_on": "eosinophils in O. ochengi nodules", "assay": "Nodular eosinophils as percentage of polymorphonuclear cells", "format": "in vivo, zebu (Ngaoundéré Gudali) cattle", "conditions": "MRSM, 4 mg/kg every other day for 3 days"}, "[2]": {"tested_on": "polymorphonuclear cells in O. ochengi nodules", "assay": "Nodular polymorphonuclear cell counts per high-power field", "format": "in vivo, zebu (Ngaoundéré Gudali) cattle", "conditions": "MRSM, 4 mg/kg every other day for 3 days; for Nodular PMN counts per high-power field, mixed-effects coefficient vs pre-treatment (day 1): SE 81.56"}},
  "data": [
    {"compound": "NCCS[As](SCCN)c1ccc(Nc2nc(N)nc(N)n2)cc1", "note": "[melarsomine]", "values": [
      {"measurement": "Nodular eosinophils as % of total PMN, mixed-effects coefficient (SE) vs placebo", "setting": "[1]; day 90", "result": "–1.40 (13.34)"},
      {"measurement": "Nodular eosinophils as % of total PMN, mixed-effects coefficient (SE) vs placebo", "setting": "[1]; day 180", "result": "–41.88 (19.04)"},
      {"measurement": "Nodular eosinophils as % of total PMN, mixed-effects coefficient (SE) vs placebo", "setting": "[1]; day 290", "result": "–8.47 (13.17)"},
      {"measurement": "Nodular PMN counts per high-power field, mixed-effects coefficient (SE) vs placebo", "setting": "[2]; day 90", "result": "−31.96 (37.23)"},
      {"measurement": "Nodular PMN counts per high-power field, mixed-effects coefficient vs pre-treatment (day 1)", "setting": "[2]; day 90", "result": "−89.76"},
      {"measurement": "Nodular PMN counts per high-power field, mixed-effects coefficient (SE) vs placebo", "setting": "[2]; day 180", "result": "−2.50 (90.62)"},
      {"measurement": "Nodular PMN counts per high-power field, mixed-effects coefficient vs pre-treatment (day 1)", "setting": "[2]; day 180", "result": "−17.19"},
      {"measurement": "Nodular PMN counts per high-power field, mixed-effects coefficient (SE) vs placebo", "setting": "[2]; day 290", "result": "−98.33 (93.14)"},
      {"measurement": "Nodular PMN counts per high-power field, mixed-effects coefficient vs pre-treatment (day 1)", "setting": "[2]; day 290", "result": "−114.19"}
    ]}
  ]
}
